Measurements taken from article PMC4467130.
No constants are given. Whether binding was seen depends on the method and setting. Binding seen in cells or lysates may run through a third protein. Some entries that bind do so weakly or less than the wild type.

By UniProt entry, the sequences of proteins in these tests, tags left out.
UniProt P05549: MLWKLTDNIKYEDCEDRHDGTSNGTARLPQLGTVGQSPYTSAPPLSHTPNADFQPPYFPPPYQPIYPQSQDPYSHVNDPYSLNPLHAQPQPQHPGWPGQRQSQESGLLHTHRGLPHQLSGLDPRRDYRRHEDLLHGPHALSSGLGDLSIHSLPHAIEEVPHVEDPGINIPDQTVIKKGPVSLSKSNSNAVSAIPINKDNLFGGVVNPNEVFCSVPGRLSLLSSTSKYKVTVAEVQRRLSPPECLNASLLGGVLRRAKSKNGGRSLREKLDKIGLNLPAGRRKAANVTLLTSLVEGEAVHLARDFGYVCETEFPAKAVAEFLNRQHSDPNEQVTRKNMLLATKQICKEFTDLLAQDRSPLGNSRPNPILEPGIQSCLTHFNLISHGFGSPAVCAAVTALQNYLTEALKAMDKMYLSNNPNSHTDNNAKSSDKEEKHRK
UniProt Q09472: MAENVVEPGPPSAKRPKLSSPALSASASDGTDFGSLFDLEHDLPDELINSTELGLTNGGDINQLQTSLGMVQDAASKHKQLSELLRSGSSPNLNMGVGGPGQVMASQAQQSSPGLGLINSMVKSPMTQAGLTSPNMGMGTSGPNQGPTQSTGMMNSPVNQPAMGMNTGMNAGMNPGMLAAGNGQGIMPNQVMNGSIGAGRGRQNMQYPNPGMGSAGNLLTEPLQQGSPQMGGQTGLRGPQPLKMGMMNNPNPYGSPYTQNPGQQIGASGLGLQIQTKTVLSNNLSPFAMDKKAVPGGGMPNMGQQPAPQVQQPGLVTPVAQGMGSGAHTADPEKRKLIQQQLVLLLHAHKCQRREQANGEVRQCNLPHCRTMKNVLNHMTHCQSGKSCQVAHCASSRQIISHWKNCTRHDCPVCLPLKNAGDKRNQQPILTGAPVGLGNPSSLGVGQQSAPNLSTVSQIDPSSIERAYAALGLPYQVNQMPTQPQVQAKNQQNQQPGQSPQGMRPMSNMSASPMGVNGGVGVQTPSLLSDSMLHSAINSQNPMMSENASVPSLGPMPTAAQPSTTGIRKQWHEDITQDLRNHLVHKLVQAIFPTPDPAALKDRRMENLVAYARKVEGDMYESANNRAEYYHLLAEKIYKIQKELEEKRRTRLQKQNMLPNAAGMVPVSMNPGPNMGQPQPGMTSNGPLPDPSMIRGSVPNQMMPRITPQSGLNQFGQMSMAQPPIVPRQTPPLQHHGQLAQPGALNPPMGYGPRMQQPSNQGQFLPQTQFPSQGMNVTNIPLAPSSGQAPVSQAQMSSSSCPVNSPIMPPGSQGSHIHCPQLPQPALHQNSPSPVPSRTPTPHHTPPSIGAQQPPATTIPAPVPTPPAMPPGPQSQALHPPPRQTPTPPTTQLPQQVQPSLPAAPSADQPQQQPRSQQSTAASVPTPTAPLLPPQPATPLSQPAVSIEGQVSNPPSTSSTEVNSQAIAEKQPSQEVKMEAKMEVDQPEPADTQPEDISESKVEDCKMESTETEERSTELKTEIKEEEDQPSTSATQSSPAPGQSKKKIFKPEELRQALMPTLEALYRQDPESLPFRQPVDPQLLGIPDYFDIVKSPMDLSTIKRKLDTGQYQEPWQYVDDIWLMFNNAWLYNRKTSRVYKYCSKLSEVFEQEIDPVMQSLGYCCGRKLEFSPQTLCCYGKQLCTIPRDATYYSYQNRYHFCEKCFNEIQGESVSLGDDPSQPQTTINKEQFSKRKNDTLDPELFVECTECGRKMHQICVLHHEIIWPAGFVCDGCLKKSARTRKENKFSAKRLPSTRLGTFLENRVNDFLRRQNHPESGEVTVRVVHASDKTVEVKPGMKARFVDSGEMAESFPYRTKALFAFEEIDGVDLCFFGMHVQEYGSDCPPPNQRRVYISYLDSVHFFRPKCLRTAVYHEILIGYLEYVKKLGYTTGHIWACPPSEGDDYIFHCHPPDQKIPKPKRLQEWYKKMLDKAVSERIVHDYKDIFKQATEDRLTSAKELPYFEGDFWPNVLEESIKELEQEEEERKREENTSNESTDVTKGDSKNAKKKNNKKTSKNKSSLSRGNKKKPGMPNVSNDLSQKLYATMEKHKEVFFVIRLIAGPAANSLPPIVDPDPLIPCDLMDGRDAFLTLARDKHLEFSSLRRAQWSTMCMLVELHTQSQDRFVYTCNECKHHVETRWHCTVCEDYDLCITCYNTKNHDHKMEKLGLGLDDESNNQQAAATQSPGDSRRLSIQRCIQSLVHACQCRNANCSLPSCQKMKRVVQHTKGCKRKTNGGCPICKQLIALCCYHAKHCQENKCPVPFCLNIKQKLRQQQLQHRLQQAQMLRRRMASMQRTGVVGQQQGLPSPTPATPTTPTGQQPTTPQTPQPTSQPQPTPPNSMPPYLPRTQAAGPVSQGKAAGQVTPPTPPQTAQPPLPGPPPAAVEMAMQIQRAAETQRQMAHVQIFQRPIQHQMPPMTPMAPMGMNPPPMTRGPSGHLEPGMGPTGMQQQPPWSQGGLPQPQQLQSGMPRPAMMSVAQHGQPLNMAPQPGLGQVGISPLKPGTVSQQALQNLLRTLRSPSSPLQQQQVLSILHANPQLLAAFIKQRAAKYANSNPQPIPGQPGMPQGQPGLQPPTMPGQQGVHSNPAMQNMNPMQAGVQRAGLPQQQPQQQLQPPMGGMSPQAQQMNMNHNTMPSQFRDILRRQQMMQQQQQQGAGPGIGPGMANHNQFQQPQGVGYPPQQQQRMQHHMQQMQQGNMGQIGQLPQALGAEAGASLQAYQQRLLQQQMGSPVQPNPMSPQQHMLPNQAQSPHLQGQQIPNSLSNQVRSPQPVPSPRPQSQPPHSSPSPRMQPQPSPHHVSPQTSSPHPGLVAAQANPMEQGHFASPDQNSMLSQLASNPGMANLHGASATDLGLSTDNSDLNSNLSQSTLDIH

Columns and labels:
[1] = molecular target: Activating enhancer-binding protein-2α (human (endogenous in CNE2)) (UniProt P05549); assay: co-IP; nuclear extract proteins (800 μg) of CNE2 cells incubated with rabbit polyclonal antibody to AP-2α or p300 overnight at 4°C; protein A/G plus agarose; washed 3 times with RIPA buffer; Western blot with p300 or AP-2α antibody
[2] = molecular target: p300 (human (endogenous in CNE2)) (UniProt Q09472); assay: as above

Row | binding [1] | binding [2] | Substance
1 | binds |  | p300 (from UniProt Q09472 1-2414)
2 |  | binds | Activating enhancer-binding protein-2α (from UniProt P05549 1-437)
